The exact form of at least one protein or probe is not confirmed. At least one verdict was read from the data and is not stated in words by the source. Where a protein sequence is shown, tags need not be part of it.

Experimental findings from paper PMC5552905, “Mechanisms of peptide sex pheromone regulation of conjugation in Enterococcus faecalis” (MicrobiologyOpen, 2017) are described below.

The data set addresses T1, PrgX (Enterococcus faecalis (plasmid pCF10)) (UniProt Q04114).
T1 sequence (looked up, limits assumed): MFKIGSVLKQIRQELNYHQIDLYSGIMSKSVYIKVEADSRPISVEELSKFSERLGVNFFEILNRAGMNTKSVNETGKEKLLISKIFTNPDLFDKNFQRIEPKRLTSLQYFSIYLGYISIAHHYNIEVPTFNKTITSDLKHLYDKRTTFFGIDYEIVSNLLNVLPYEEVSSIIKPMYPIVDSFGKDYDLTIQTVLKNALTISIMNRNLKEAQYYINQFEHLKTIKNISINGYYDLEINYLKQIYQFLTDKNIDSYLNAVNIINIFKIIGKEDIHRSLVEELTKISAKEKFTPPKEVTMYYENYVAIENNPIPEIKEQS
Put plainly: EMSA. The following applies: cCF10 (C), virtually identical to I; EMSA: 20 mM Tris-HCl pH 7.9, 0.1 M NaCl, 0.1 mM EDTA, 10% glycerol, 10 mM MgCl2, 1 ug poly-[d(A-T)], 0.1 ug poly-L-lysine, 20 ul, room temperature 15 min; recombinant protein; label: 3' DIG-11-ddUTP.

Consider “TGTTAATATTTTAATTTTAGGTATTGAATACGACACTCGAAGATGTGTTTATTAAGCTATATCCCTTTTTTTTAAAAAAAAATA (double strand) [XBS1 DNA]”, for which the binding result is “binds”.
